Laboratory results taken from US7919261B2, “Methods for predicting treatment response based on the expression profiles of protein and transcription biomarkers” (Merck Sharp & Dohme Corp., priority 2006, dated 2011).
Where two headings read alike, the source gives them in different places.

Assays:
Experiment in all cases: CellTiter-Blue Cell Viability Assay
HH = type: cell-based, human; settings: cell line HH, Lymphoma- CTCL, read-out: IC50 (μM) (Cell Titre-Blue assay)
Description: (§1) For the proliferation assay, cell lines were seeded on 96-well plates (Corning). After 24 hours of plating, the 96-well plates were treated with vorinostat (SAHA) (0, 0.004-30 uM). The CellTiter-Blue Reagent™ was added to each of the wells. Experiments were performed in triplicate. The plates were then placed at 37° C. for two hours, and subsequently read on the Flex Station II […] from Molecular Devices. The IC50 values were calculated using the Sigma Plot software. Combination index for the studies to test efficacy of Vorinostat and JAK inhibitors was calculated with CalcuSyn software (is there a web site for this or a reference that describes the software)
(§2) An expanded set of 50 human cell lines, including the twelve cell lines listed in Table 1, were assembled (Table 2), that represent a range of lymphoid tumor types (including 10 diffuse large B cell lymphoma, 10 Burkitt lymphoma, 8 multiple myeloma and 5 CTCL). As detailed in Example 1, each of these cell lines was cultured in vitro and response to vorinostat was assessed at 8 different concentrations (0 and 0.04 to 30 micromolar) at 24 hr using the ApoONE™ Homogeneous Caspase-3/7 Assay (Promega) and at 24, 48 and 72 h using the CellTiter-Blue™ Cell Viability Assay (Promega). The CellTiter Blue assay was used to determine the vorinostat IC50 for each cell line.

MJ = type: cell-based; settings: Homo sapiens; cell line MJ, Lymphoma- CTCL; read-out: IC50 (μM) (Cell Titre-Blue assay)
Description: as §1, §2

RPMI8226 = type: cell-based; settings: Homo sapiens, RPMI-8226; cell line RPMI8226, Multiple Myeloma; read-out: IC50 (μM) (Cell Titre-Blue assay)
Description: as §1, §2

Toledo = type: cell-based; settings: Homo sapiens, cell line Toledo (avg), Lymphoma DLBCL, read-out: IC50 (μM) (Cell Titre-Blue assay)
Description: as §1, §2

NCI_H929 = type: cell-based; settings: Homo sapiens, NCI-H929; cell line NCI_H929, Multiple Myeloma; read-out: IC50 (μM) (Cell Titre-Blue assay)
Description: as §1, §2

MC116 = type: cell-based; settings: Homo sapiens; cell line MC116, Lymphoma - undifferentiated; read-out: IC50 (μM) (Cell Titre-Blue assay)
Description: as §1, §2

NAMALWA = type: cell-based; settings: Homo sapiens; cell line NAMALWA, Lymphoma - Burkitts; read-out: IC50 (μM) (Cell Titre-Blue assay)
Description: as §1, §2

BC_1 = type: cell-based; settings: Homo sapiens, BC1; cell line BC_1, Lymphoma - B cell PEL; read-out: IC50 (μM) (Cell Titre-Blue assay)
Description: as §1, §2

JM1 = type: cell-based; settings: Homo sapiens; cell line JM1, Lymphoma - Pre B lymphoblast; read-out: IC50 (μM) (Cell Titre-Blue assay)
Description: as §1, §2

ST486 = type: cell-based; settings: Homo sapiens; cell line ST486, Lymphoma - Burkitts; read-out: IC50 (μM) (Cell Titre-Blue assay)
Description: as §1, §2

SC_1 = type: cell-based; settings: Homo sapiens, SC-1; cell line SC_1, Lymphoma - Follicular; read-out: IC50 (μM) (Cell Titre-Blue assay)
Description: as §1, §2

LP-1 = type: cell-based; settings: Homo sapiens; cell line LP-1, Multiple Myeloma; read-out: IC50 (μM) (Cell Titre-Blue assay)
Description: as §1, §2

GRANTA_519 = type: cell-based; settings: Homo sapiens, Granta-519; cell line GRANTA_519, Lymphoma - Mantle cell; read-out: IC50 (μM) (Cell Titre-Blue assay)
Description: as §1, §2

H9 = type: cell-based; settings: Homo sapiens; cell line H9, Lymphoma - CTCL; read-out: IC50 (μM) (Cell Titre-Blue assay)
Description: as §1, §2

CA46 = type: cell-based; settings: Homo sapiens; cell line CA46, Lymphoma - Burkitts; read-out: IC50 (μM) (Cell Titre-Blue assay)
Description: as §1, §2

EB_1 = type: cell-based; settings: Homo sapiens; cell line EB_1 (EB1), Lymphoma - Burkitts; read-out: IC50 (μM) (Cell Titre-Blue assay)
Description: as §1, §2

Daudi = type: cell-based; settings: Homo sapiens; cell line Daudi, Lymphoma - Burkitts; read-out: IC50 (μM) (Cell Titre-Blue assay)
Description: as §1, §2

DOHH_2 = type: cell-based; settings: Homo sapiens, DOHH-2; cell line DOHH_2, Lymphoma Follicular; read-out: IC50 (μM) (Cell Titre-Blue assay)
Description: as §1, §2

SR_786 = type: cell-based; settings: Homo sapiens, SR-786; cell line SR_786 (SR786), Lymphoma - ALCL; read-out: IC50 (μM) (Cell Titre-Blue assay)
Description: as §1, §2

U266 = type: cell-based; settings: Homo sapiens, U-266; cell line U266, Multiple Myeloma; read-out: IC50 (μM) (Cell Titre-Blue assay)
Description: as §1, §2

RPMI6666 = type: cell-based; settings: Homo sapiens, RPMI-6666; cell line RPMI6666, Lymphoma - Hodgkins; read-out: IC50 (μM) (Cell Titre-Blue assay)
Description: as §1, §2

SUP_T1 = type: cell-based; settings: Homo sapiens, SUP-T1; cell line SUP_T1 (SUPT1), Lymphoma -T cell; read-out: IC50 (μM) (Cell Titre-Blue assay)
Description: as §1, §2

SU_DHL_1 = type: cell-based; settings: Homo sapiens, SU-DHL-1; cell line SU_DHL_1, Lymphoma - ALCL; read-out: IC50 (μM) (Cell Titre-Blue assay)
Description: as §1, §2

MOLP_8 = type: cell-based; settings: Homo sapiens, MOLP-8; cell line MOLP_8, Multiple Myeloma; read-out: IC50 (μM) (Cell Titre-Blue assay)
Description: as §1, §2

EB_3 = type: cell-based; settings: Homo sapiens, EB-3; cell line EB_3, Lymphoma - Burkitts; read-out: IC50 (μM) (Cell Titre-Blue assay)
Description: as §1, §2

SUP_M2 = type: cell-based; settings: Homo sapiens, SUP-M2; cell line SUP_M2 (SUPM2), Lymphoma - ALCL; read-out: IC50 (μM) (Cell Titre-Blue assay)
Description: as §1, §2

Farage = type: cell-based; settings: Homo sapiens; cell line Farage, Lymphoma- non Hodgkins B cell; read-out: IC50 (μM) (Cell Titre-Blue assay)
Description: as §1, §2

EB_2 = type: cell-based; settings: Homo sapiens, EB2; cell line EB_2, Lymphoma - Burkitts; read-out: IC50 (μM) (Cell Titre-Blue assay)
Description: as §1, §2

Ramos_RA_1 = type: cell-based; settings: Homo sapiens; cell line Ramos_RA_1, Lymphoma - Burkitts; read-out: IC50 (μM) (Cell Titre-Blue assay)
Description: as §1, §2

NC_37 = type: cell-based; settings: Homo sapiens, NC-37; cell line NC_37, Lymphoma - Burkitts; read-out: IC50 (μM) (Cell Titre-Blue assay)
Description: as §1, §2

Hs_445 = type: cell-based; settings: Homo sapiens, Hs 445; cell line Hs_445, Lymphoma - Hodgkins; read-out: IC50 (μM) (Cell Titre-Blue assay)
Description: as §1, §2

Raji = type: cell-based; settings: Homo sapiens; cell line Raji, Lymphoma - Burkitts; read-out: IC50 (μM) (Cell Titre-Blue assay)
Description: as §1, §2

BC_3 = type: cell-based; settings: Homo sapiens, BC-3; cell line BC_3, Lymphoma- B Cell; read-out: IC50 (μM) (Cell Titre-Blue assay)
Description: as §1, §2

HT = type: cell-based; settings: Homo sapiens; cell line HT (1), Lymphoma DLBCL; read-out: IC50 (μM) (Cell Titre-Blue assay)
Description: as §1, §2

EJM = type: cell-based; settings: Homo sapiens; cell line EJM, Multiple Myeloma; read-out: IC50 (μM) (Cell Titre-Blue assay)
Description: as §1, §2

RC_K8 = type: cell-based; settings: Homo sapiens; cell line RC_K8 (RCK8), Lymphoma - DLBCL; read-out: IC50 (μM) (Cell Titre-Blue assay)
Description: as §1, §2

U_937 = type: cell-based; settings: Homo sapiens, U-937; cell line U_937, Lymphoma - histiocytic; read-out: IC50 (μM) (Cell Titre-Blue assay)
Description: as §1, §2

KARPAS_299 = type: cell-based; settings: Homo sapiens; cell line KARPAS_299 (KARPAS-299), Lymphoma - ALCL; read-out: IC50 (μM) (Cell Titre-Blue assay)
Description: as §1, §2

Jiyoye = type: cell-based; settings: Homo sapiens; cell line Jiyoye, Lymphoma - Burkitts; read-out: IC50 (μM) (Cell Titre-Blue assay)
Description: as §1, §2

Pfeiffer = type: cell-based; settings: Homo sapiens; cell line Pfeiffer (1), Lymphoma DLBCL; read-out: IC50 (μM) (Cell Titre-Blue assay)
Description: as §1, §2

JEKO_1 = type: cell-based; settings: Homo sapiens, JeKo-1; cell line JEKO_1, Lymphoma - Mantle cell; read-out: IC50 (μM) (Cell Titre-Blue assay)
Description: as §1, §2

SMILES: O=C(CCCCCCC(=O)Nc1ccccc1)NO [vorinostat, suberoylanilide hydroxamic acid]
- IC50 (HH; Homo sapiens, HH): 0.89 µM
- IC50 (HH): 0.89 µM
- IC50 (MJ): 2.78 µM
- IC50 (RPMI8226): 1.29 µM
- IC50 (Toledo): 0.72 µM
- IC50 (NCI_H929): 1.4 µM
- IC50 (MC116): 0.9 µM
- IC50 (NAMALWA): 0.84 µM
- IC50 (BC_1): 1.27 µM
- IC50 (JM1): 0.49 µM
- IC50 (ST486): 0.78 µM
- IC50 (SC_1): 0.93 µM
- IC50 (LP-1): 0.97 µM
- IC50 (GRANTA_519): 3.4 µM
- IC50 (H9): 1.28 µM
- IC50 (CA46): 0.54 µM
- IC50 (EB_1): 6.4 µM
- IC50 (Daudi): 4.1 µM
- IC50 (DOHH_2): 0.71 µM
- IC50 (SR_786): 14.4 µM
- IC50 (U266): 2.47 µM
- IC50 (RPMI6666): > 30 µM
- IC50 (SUP_T1): 0.32 µM
- IC50 (SU_DHL_1): 9.07 µM
- IC50 (MOLP_8): 1.13 µM
- IC50 (EB_3): 3.36 µM
- IC50 (SUP_M2): 14.5 µM
- IC50 (Farage): 2.59 µM
- IC50 (EB_2): 9.96 µM
- IC50 (Ramos_RA_1): 1.24 µM
- IC50 (NC_37): 2.36 µM
- IC50 (Hs_445): 3.69 µM
- IC50 (Raji): 1.36 µM
- IC50 (BC_3): 0.63 µM
- IC50 (HT): 2.05 µM
- IC50 (EJM): 3.24 µM
- IC50 (RC_K8): 4.55 µM
- IC50 (U_937): 1.44 µM
- IC50 (KARPAS_299): 1.73 µM
- IC50 (Jiyoye): 3.7 µM
- IC50 (Pfeiffer): 2.57 µM
- IC50 (JEKO_1): 0.812 µM
